{
  "source": "PubChem BioAssay AID308",
  "about": "(DTP/NCI, 2004)",
  "test_system": "BDF1 mice, L1210 6-MP/6-TG resistant leukemia ip, survival T/C",
  "test": "NCI In Vivo Anticancer Drug Screen. Data for tumor model L1210 Leukemia resistant to 6-MP and 6-Thioguanine; NSC 755, NSC 752 (intraperitoneal) in B6D2F1 (BDF1) mice",
  "details": "T/C endpoint: mean survival time, schedule: Q01DX Z (ip), higher T/C = longer survival",
  "method": "The antitumor activity of compounds was measured in mice bearing transplantable tumors. Survival or tumor size were measured and the results are expressed as the measurement made in the treated group (T) divided by the measurement made in the vehicle treated control group (C). The tumor model used in this assay is L1210 Leukemia resistant to 6-MP and 6-Thioguanine; NSC 755, NSC 752 (intraperitoneal) in B6D2F1 (BDF1) mice",
  "key": {"[1]": {"details": "dose: 3.0 mg/kg/injection, vehicle: carboxymethylcellulose (CMC)"}},
  "note": "The list is a part of this screen's results and no random one: it gathers some chemical classes. Other doses and runs of a compound may be missing. T/C gives the treated animals as a percentage of the vehicle group. Some doses have a count of surviving animals in place of a T/C: the source files T/C as zero there, which appears to mark a toxic dose or a test without result, not a measured value. Some survivor counts are full or nearly so, which does not show that the dose was tolerated: survival well below the control is almost never listed, so the zero probably covers shortened survival too. Survivors were counted at the toxicity check, usually on the fifth day, unless a day is given; later deaths do not show. Schedules are NCI's codes, read here as Q, the interval in days (D) or hours (H), X, the number of doses. Some schedule codes hold Z or #, which are not explained here. For survival time, this PubChem deposit counts one and a half times the control or more as active, and values a quarter to a half above the control carry no call in these data; other NCI protocols may use other cut-offs. Some T/C values are followed by the survivors on the day toxicity was checked, most often the fifth; where neither a count nor a note follows, no animal had died by that day. Some entries hold several experiments; the results are listed from low to high.",
  "data": [
    {"smiles": "CC[C@H](C)[C@@H]1NC(=O)/C(=C(\\C)O)C1=O", "values": [
      {"measurement": "T/C", "setting": "dose: 18.0 mg/kg/injection, vehicle: saline", "result": "102 % of control"},
      {"measurement": "T/C", "setting": "dose: 25.0 mg/kg/injection, vehicle: saline", "result": "102 % of control"},
      {"measurement": "T/C", "setting": "dose: 37.5 mg/kg/injection, vehicle: saline", "result": "101 % of control"},
      {"measurement": "T/C", "setting": "dose: 50.0 mg/kg/injection, vehicle: saline", "result": "112 % of control"},
      {"measurement": "T/C", "setting": "dose: 75.0 mg/kg/injection, vehicle: saline", "result": "110 % of control"},
      {"measurement": "T/C", "setting": "dose: 100.0 mg/kg/injection, vehicle: saline", "result": "103 % of control"},
      {"measurement": "survivor count", "setting": "dose: 150.0 mg/kg/injection, vehicle: saline", "result": "1 of 6"},
      {"measurement": "survivor count", "setting": "dose: 200.0 mg/kg/injection, vehicle: saline", "result": "0 of 6"}
    ]},
    {"smiles": "CN(N=O)C(=N)N[N+](=O)[O-]", "values": [
      {"measurement": "T/C", "setting": "dose: 1.5 mg/kg/injection, vehicle: carboxymethylcellulose (CMC)", "result": "103 % of control"},
      {"measurement": "T/C", "setting": "[1]", "result": "131 % of control"},
      {"measurement": "T/C", "setting": "dose: 6.25 mg/kg/injection, vehicle: carboxymethylcellulose (CMC)", "result": "143 % of control"},
      {"measurement": "T/C", "setting": "dose: 12.5 mg/kg/injection, vehicle: carboxymethylcellulose (CMC)", "result": "153 % of control"},
      {"measurement": "T/C", "setting": "dose: 25.0 mg/kg/injection, vehicle: carboxymethylcellulose (CMC)", "result": "114 % of control"},
      {"measurement": "survivor count", "setting": "dose: 37.5 mg/kg/injection, vehicle: carboxymethylcellulose (CMC)", "result": "6 of 6"},
      {"measurement": "survivor count", "setting": "dose: 50.0 mg/kg/injection, vehicle: carboxymethylcellulose (CMC)", "result": "3 of 6"},
      {"measurement": "survivor count", "setting": "dose: 75.0 mg/kg/injection, vehicle: carboxymethylcellulose (CMC)", "result": "0 of 6"}
    ]},
    {"smiles": "Cc1[nH]c(=O)[nH]c(=O)c1N(CCCl)CCCl", "values": [
      {"measurement": "T/C", "setting": "dose: 0.06 mg/kg/injection, vehicle: carboxymethylcellulose (CMC)", "result": "93 % of control"},
      {"measurement": "T/C", "setting": "dose: 0.12 mg/kg/injection, vehicle: carboxymethylcellulose (CMC)", "result": "87 % of control"},
      {"measurement": "T/C", "setting": "dose: 0.25 mg/kg/injection, vehicle: carboxymethylcellulose (CMC)", "result": "97 % of control"},
      {"measurement": "T/C", "setting": "dose: 0.5 mg/kg/injection, vehicle: carboxymethylcellulose (CMC)", "result": "111 % of control"},
      {"measurement": "T/C", "setting": "dose: 1.0 mg/kg/injection, vehicle: carboxymethylcellulose (CMC)", "result": "115 [5 of 6 alive] and 159 % of control"},
      {"measurement": "T/C", "setting": "dose: 2.0 mg/kg/injection, vehicle: carboxymethylcellulose (CMC)", "result": "132 % of control [5 of 6 alive]"},
      {"measurement": "T/C", "setting": "[1]", "result": "105 % of control"},
      {"measurement": "T/C", "setting": "dose: 4.0 mg/kg/injection, vehicle: carboxymethylcellulose (CMC)", "result": "101 % of control"},
      {"measurement": "survivor count", "setting": "dose: 5.0 mg/kg/injection, vehicle: carboxymethylcellulose (CMC)", "result": "4 of 6"},
      {"measurement": "survivor count", "setting": "dose: 10.0 mg/kg/injection, vehicle: carboxymethylcellulose (CMC)", "result": "1 of 6"},
      {"measurement": "survivor count", "setting": "dose: 15.0 mg/kg/injection, vehicle: carboxymethylcellulose (CMC)", "result": "3 of 6"},
      {"measurement": "survivor count", "setting": "dose: 20.0 mg/kg/injection, vehicle: carboxymethylcellulose (CMC)", "result": "1 of 6"}
    ]}
  ]
}
